Data source: PubChem BioAssay AID652272 (Drosophila RNAi Screening Center, 2013)

Screen: 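Finding fly genes that regulate Hedgehog signal transduction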 (primary screen)
System: Drosophila clone 8 (Cl8) cells
Knock-down reagent: long dsRNA against Drosophila genes
Read-out: 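Plate reader light from a firefly reporter under a ptc promoter fragment that responds to Hedgehog, with Renilla light as transfection reference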
Reading the numbers: firefly Hh reporter signal: higher = more ptc reporter light; Renilla reference signal: higher = more Renilla control light
Call rule: 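Called a hit if the two-replicate mean z-score lies below -2 or above +3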
Calls: active = hit: reporter lowered or raised; inactive = not a hit
The screen tested about 21,000 reagents; below is an unselected part of those that have a named target and a result. Over the whole deposit, 503 (2.4%) were called active. 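Raw plate light values, not normalised; calls rest on replicate z-scores that were not deposited; hits include reporter decreases as well as increases.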 A number with no mark means an inactive call. No sequences are given here. Not given: the amount of reagent, the time to read-out.

{"predicted target": "CCT5", "amplicon": "DRSC07357", "firefly Hh reporter signal, replicate 1": 54587, "firefly Hh reporter signal, replicate 2": 53692, "Renilla reference signal, replicate 1": 2641, "Renilla reference signal, replicate 2": 2032}
{"predicted target": "MTPAP", "amplicon": "DRSC18585", "firefly Hh reporter signal, replicate 1": 91561, "firefly Hh reporter signal, replicate 2": 2.56e5, "Renilla reference signal, replicate 1": 2918, "Renilla reference signal, replicate 2": 8948}
{"predicted target": "nAChRbeta3", "amplicon": "DRSC00325", "firefly Hh reporter signal, replicate 1": 1.14e5, "firefly Hh reporter signal, replicate 2": 97140, "Renilla reference signal, replicate 1": 4749, "Renilla reference signal, replicate 2": 4096}
{"predicted target": "Tmf", "amplicon": "DRSC18368", "firefly Hh reporter signal, replicate 1": 93699, "firefly Hh reporter signal, replicate 2": 3.65e5, "Renilla reference signal, replicate 1": 3733, "Renilla reference signal, replicate 2": 11628}
{"predicted target": "Ir10a", "amplicon": "DRSC18891", "firefly Hh reporter signal, replicate 1": 5.57e5, "firefly Hh reporter signal, replicate 2": 2.03e5, "Renilla reference signal, replicate 1": 29881, "Renilla reference signal, replicate 2": 3549}
{"predicted target": "Ir10a", "amplicon": "DRSC19478", "firefly Hh reporter signal, replicate 1": 64937, "firefly Hh reporter signal, replicate 2": 1.67e5, "Renilla reference signal, replicate 1": 2722, "Renilla reference signal, replicate 2": 6210}
{"predicted target": "Ir10a", "amplicon": "DRSC19479", "firefly Hh reporter signal, replicate 1": 61580, "firefly Hh reporter signal, replicate 2": 1.93e5, "Renilla reference signal, replicate 1": 2413, "Renilla reference signal, replicate 2": 6929}
{"predicted target": "CG13545", "amplicon": "DRSC04187", "firefly Hh reporter signal, replicate 1": 1.33e5, "firefly Hh reporter signal, replicate 2": 74876, "Renilla reference signal, replicate 1": 3563, "Renilla reference signal, replicate 2": 5194}
{"predicted target": "Top3beta", "amplicon": "DRSC18724", "firefly Hh reporter signal, replicate 1": 71315, "firefly Hh reporter signal, replicate 2": 72461, "Renilla reference signal, replicate 1": 1699, "Renilla reference signal, replicate 2": 1612}

The list goes on (2 carried over from the part before).
{"predicted target": "CG13545", "amplicon": "DRSC04187", "firefly Hh reporter signal, replicate 1": 1.33e5, "firefly Hh reporter signal, replicate 2": 74876, "Renilla reference signal, replicate 1": 3563, "Renilla reference signal, replicate 2": 5194}
{"predicted target": "Top3beta", "amplicon": "DRSC18724", "firefly Hh reporter signal, replicate 1": 71315, "firefly Hh reporter signal, replicate 2": 72461, "Renilla reference signal, replicate 1": 1699, "Renilla reference signal, replicate 2": 1612}
{"predicted target": "Fgop2", "amplicon": "DRSC02016", "firefly Hh reporter signal, replicate 1": 40052, "firefly Hh reporter signal, replicate 2": 54981, "Renilla reference signal, replicate 1": 2250, "Renilla reference signal, replicate 2": 2644}
{"predicted target": "CG31445", "amplicon": "DRSC14443", "firefly Hh reporter signal, replicate 1": 72499, "firefly Hh reporter signal, replicate 2": 1.01e5, "Renilla reference signal, replicate 1": 1787, "Renilla reference signal, replicate 2": 2596}
{"predicted target": "retm", "amplicon": "DRSC03252", "firefly Hh reporter signal, replicate 1": 64800, "firefly Hh reporter signal, replicate 2": 86840, "Renilla reference signal, replicate 1": 2678, "Renilla reference signal, replicate 2": 3628}
{"predicted target": "Or83c", "amplicon": "DRSC12359", "firefly Hh reporter signal, replicate 1": 76774, "firefly Hh reporter signal, replicate 2": 1.56e5, "Renilla reference signal, replicate 1": 3318, "Renilla reference signal, replicate 2": 4339}
{"predicted target": "betaTry", "amplicon": "DRSC07582", "firefly Hh reporter signal, replicate 1": 1.58e5, "firefly Hh reporter signal, replicate 2": 7.61e5, "firefly Hh reporter signal, replicate 3": 95739, "Renilla reference signal, replicate 1": 4082, "Renilla reference signal, replicate 2": 6299}
